# Measured values reported in the supplement of paper PMC8728848.
# Some of the results follow.
# Legend:
# Test in all cases: glycan array binding signal (z-score within array); higher = stronger binding
# Conditions in all cases: glycan notation: IUPAC condensed, linker removed
# [1] = target: Gal(b1-4)GlcNAc(b1-3)Gal(b1-4)[Fuc(a1-3)GlcNAc(b1-6)]Gal(b1-4)Glc
# Summary of the method: (§1)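 Glycan array binding is given as a within-array Z-score, which can be read as non-binding when negative. The arrays, 3228 of them, came from the Consortium for Functional Glycomics database and were retained only where the protein sequence was available. Z-scores were averaged across arrays of the same protein sequence at different concentrations or buffers and across linkers.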
# [2] = target: Gal(b1-4)GlcNAc(b1-3)Gal(b1-4)[Fuc(a1-3)]GlcNAc(b1-3)Gal(b1-4)[Fuc(a1-3)]GlcNAc
# Summary of the method: as §1
# [3] = target: Gal(b1-4)GlcNAc(b1-3)GalNAc
# Summary of the method: as §1
# [4] = target: Gal(b1-4)GlcNAc(b1-3)[Fuc(a1-3)GlcNAc(b1-6)]Gal(b1-4)Glc
# Summary of the method: as §1
# [5] = target: Gal(b1-4)GlcNAc(b1-3)[Gal(b1-4)GlcNAc(b1-6)]Gal(b1-4)GlcNAc
# Summary of the method: as §1
# [6] = target: Gal(b1-4)GlcNAc(b1-3)[Gal(b1-4)GlcNAc(b1-6)]GalNAc
# Summary of the method: as §1
# [7] = target: Gal(b1-4)GlcNAc(b1-3)[GlcNAc(b1-6)]Gal(b1-4)GlcNAc
# Summary of the method: as §1
# [8] = target: Gal(b1-4)GlcNAc(b1-6)Gal(b1-4)GlcNAc
# Summary of the method: as §1
# [9] = target: Gal(b1-4)GlcNAc(b1-6)Gal(b1-4)GlcNAc(b1-6)GalNAc
# Summary of the method: as §1
# [10] = target: Gal(b1-4)GlcNAc(b1-6)GalNAc
# Summary of the method: as §1
# [11] = target: Gal(b1-4)GlcNAc(b1-6)[Gal(b1-3)]GalNAc
# Summary of the method: as §1
# [12] = target: Gal(b1-4)GlcNAc(b1-6)[Gal(b1-4)GlcNAc(b1-3)]GalNAc
# Summary of the method: as §1
# Gal(b1-4)GlcNAc6P = target: Gal(b1-4)GlcNAc6P
# Summary of the method: as §1
# Gal(b1-6)Gal = target: Gal(b1-6)Gal
# Summary of the method: as §1
# Gal3S(b1-3)GalNAc = target: Gal3S(b1-3)GalNAc
# Summary of the method: as §1
# Gal3S(b1-3)GlcNAc = target: Gal3S(b1-3)GlcNAc
# Summary of the method: as §1
# [13] = target: Gal3S(b1-3)[Fuc(a1-4)]GlcNAc
# Summary of the method: as §1
# Gal3S(b1-4)Glc = target: Gal3S(b1-4)Glc
# Summary of the method: as §1
# Gal3S(b1-4)Glc6S = target: Gal3S(b1-4)Glc6S
# Summary of the method: as §1
# Gal3S(b1-4)GlcNAc = target: Gal3S(b1-4)GlcNAc
# Summary of the method: as §1
# Gal3S(b1-4)GlcNAc6S = target: Gal3S(b1-4)GlcNAc6S
# Summary of the method: as §1
# [14] = target: Gal3S(b1-4)[Fuc(a1-3)]Glc
# Summary of the method: as §1
# [15] = target: Gal3S(b1-4)[Fuc(a1-3)]Glc6S
# Summary of the method: as §1
# [16] = target: Gal3S(b1-4)[Fuc(a1-3)]GlcNAc
# Summary of the method: as §1
# [17] = target: Gal3S(b1-4)[Fuc(a1-3)]GlcNAc6S
# Summary of the method: as §1
# Gal3S4S(b1-4)GlcNAc = target: Gal3S4S(b1-4)GlcNAc
# Summary of the method: as §1
# Gal3S6S(b1-4)GlcNAc = target: Gal3S6S(b1-4)GlcNAc
# Summary of the method: as §1
# Gal3S6S(b1-4)GlcNAc6S = target: Gal3S6S(b1-4)GlcNAc6S
# Summary of the method: as §1
# Gal4S(b1-4)GlcNAc = target: Gal4S(b1-4)GlcNAc
# Summary of the method: as §1
# Gal4S6S(b1-4)GlcNAc = target: Gal4S6S(b1-4)GlcNAc
# Summary of the method: as §1
# Gal6P(b1-4)GlcNAc = target: Gal6P(b1-4)GlcNAc
# Summary of the method: as §1
# Gal6S(b1-3)GlcNAc = target: Gal6S(b1-3)GlcNAc
# Summary of the method: as §1
# Gal6S(b1-3)GlcNAc6S = target: Gal6S(b1-3)GlcNAc6S
# Summary of the method: as §1
# Gal6S(b1-4)Glc = target: Gal6S(b1-4)Glc
# Summary of the method: as §1
# Gal6S(b1-4)Glc6S = target: Gal6S(b1-4)Glc6S
# Summary of the method: as §1
# Gal6S(b1-4)GlcNAc = target: Gal6S(b1-4)GlcNAc
# Summary of the method: as §1
# Gal6S(b1-4)GlcNAc6S = target: Gal6S(b1-4)GlcNAc6S
# Summary of the method: as §1
# GalNAc(a1-3)Gal = target: GalNAc(a1-3)Gal
# Summary of the method: as §1
# GalNAc(a1-3)GalNAc = target: GalNAc(a1-3)GalNAc
# Summary of the method: as §1
# [18] = target: GalNAc(a1-3)GalNAc(a1-3)Gal(a1-4)Gal(b1-4)GlcNAc
# Summary of the method: as §1
# [19] = target: GalNAc(a1-3)GalNAc(b1-3)Gal(a1-4)Gal(b1-4)Glc
# Summary of the method: as §1
# [20] = target: GalNAc(a1-3)GalNAc(b1-3)Gal(a1-4)Gal(b1-4)GlcNAc
# Summary of the method: as §1
# GalNAc(b1-3)Gal = target: GalNAc(b1-3)Gal
# Summary of the method: as §1
# [21] = target: GalNAc(b1-3)Gal(a1-4)Gal(b1-4)GlcNAc
# Summary of the method: as §1
# [22] = target: GalNAc(b1-3)Gal(a1-4)Gal(b1-4)GlcNAc(b1-3)Gal(b1-4)Glc
# Summary of the method: as §1
binder,measurement,setting,value
GST Gap3 (Streptococcus parasanguinis) (protein) MTKQLISEIYWNEIRKGENYLYGSQIKFQEDLVNFYNPQLASGKPIVTFKSRTNYQGDRHSPDLPILIQGNRYLLEYQIDAVPANSFFLQLDFFNRQAEQIESIVLRNSGESFIFPKDTFTYTLTLMSAGCQSVTYQKFMIYDINDEEKKNHIVENRYLRELLPKDLDLVKNLIEYI,glycan array binding signal (z-score),[1],-0.093
same,glycan array binding signal (z-score),[2],-0.128
same,glycan array binding signal (z-score),[3],0.105
same,glycan array binding signal (z-score),[4],-0.203
same,glycan array binding signal (z-score),[5],0.441
same,glycan array binding signal (z-score),[6],0.279
same,glycan array binding signal (z-score),[7],-0.023
same,glycan array binding signal (z-score),[8],-0.359
same,glycan array binding signal (z-score),[9],-0.125
same,glycan array binding signal (z-score),[10],0.816
same,glycan array binding signal (z-score),[11],-0.428
same,glycan array binding signal (z-score),[12],-0.18
same,glycan array binding signal (z-score),Gal(b1-4)GlcNAc6P,-0.287
same,glycan array binding signal (z-score),Gal(b1-6)Gal,-0.015
same,glycan array binding signal (z-score),Gal3S(b1-3)GalNAc,-0.28
same,glycan array binding signal (z-score),Gal3S(b1-3)GlcNAc,-0.429
same,glycan array binding signal (z-score),[13],0.041
same,glycan array binding signal (z-score),Gal3S(b1-4)Glc,-0.47
same,glycan array binding signal (z-score),Gal3S(b1-4)Glc6S,-0.055
same,glycan array binding signal (z-score),Gal3S(b1-4)GlcNAc,0.19
same,glycan array binding signal (z-score),Gal3S(b1-4)GlcNAc6S,0.277
same,glycan array binding signal (z-score),[14],-0.245
same,glycan array binding signal (z-score),[15],1.61
same,glycan array binding signal (z-score),[16],-0.723
same,glycan array binding signal (z-score),[17],-0.47
same,glycan array binding signal (z-score),Gal3S4S(b1-4)GlcNAc,0.8
same,glycan array binding signal (z-score),Gal3S6S(b1-4)GlcNAc,0.121
same,glycan array binding signal (z-score),Gal3S6S(b1-4)GlcNAc6S,0.367
same,glycan array binding signal (z-score),Gal4S(b1-4)GlcNAc,-0.319
same,glycan array binding signal (z-score),Gal4S6S(b1-4)GlcNAc,0.4
same,glycan array binding signal (z-score),Gal6P(b1-4)GlcNAc,-0.491
same,glycan array binding signal (z-score),Gal6S(b1-3)GlcNAc,-0.206
same,glycan array binding signal (z-score),Gal6S(b1-3)GlcNAc6S,0.07
same,glycan array binding signal (z-score),Gal6S(b1-4)Glc,0.03
same,glycan array binding signal (z-score),Gal6S(b1-4)Glc6S,0.308
same,glycan array binding signal (z-score),Gal6S(b1-4)GlcNAc,0.084
same,glycan array binding signal (z-score),Gal6S(b1-4)GlcNAc6S,0.129
same,glycan array binding signal (z-score),GalNAc(a1-3)Gal,0.36
same,glycan array binding signal (z-score),GalNAc(a1-3)GalNAc,-0.227
same,glycan array binding signal (z-score),[18],-0.37
same,glycan array binding signal (z-score),[19],-0.329
same,glycan array binding signal (z-score),[20],0.043
same,glycan array binding signal (z-score),GalNAc(b1-3)Gal,0.088
same,glycan array binding signal (z-score),[21],-0.177
same,glycan array binding signal (z-score),[22],-0.089

# Part of the list above, bar-delimited.
binder | measurement | setting | value
GST Gap3 (Streptococcus parasanguinis) (protein) MTKQLISEIYWNEIRKGENYLYGSQIKFQEDLVNFYNPQLASGKPIVTFKSRTNYQGDRHSPDLPILIQGNRYLLEYQIDAVPANSFFLQLDFFNRQAEQIESIVLRNSGESFIFPKDTFTYTLTLMSAGCQSVTYQKFMIYDINDEEKKNHIVENRYLRELLPKDLDLVKNLIEYI | glycan array binding signal (z-score) | Gal3S(b1-3)GlcNAc | -0.429
same | glycan array binding signal (z-score) | [13] | 0.041
same | glycan array binding signal (z-score) | Gal3S(b1-4)Glc | -0.47
